The assay concerns the target 6xHis-PqsE (wildtype) (P. aeruginosa) (UniProt P20581). The assay can be described thus: pull-down; 6xHis-PqsE proteins immobilized on Ni resin and exposed to lysate containing RhlR; complexes washed, eluted and analysed by SDS-PAGE; only the target purified.

By UniProt entry, the sequences of proteins in these tests, tags left out.
UniProt P20581: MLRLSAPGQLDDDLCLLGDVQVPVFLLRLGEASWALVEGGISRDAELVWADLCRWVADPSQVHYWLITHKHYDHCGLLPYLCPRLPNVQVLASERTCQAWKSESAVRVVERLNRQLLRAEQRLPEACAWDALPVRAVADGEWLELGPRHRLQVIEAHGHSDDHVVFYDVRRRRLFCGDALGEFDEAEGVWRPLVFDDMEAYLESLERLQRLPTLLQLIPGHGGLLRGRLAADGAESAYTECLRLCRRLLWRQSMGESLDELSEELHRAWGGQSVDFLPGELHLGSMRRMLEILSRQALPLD
UniProt P54292: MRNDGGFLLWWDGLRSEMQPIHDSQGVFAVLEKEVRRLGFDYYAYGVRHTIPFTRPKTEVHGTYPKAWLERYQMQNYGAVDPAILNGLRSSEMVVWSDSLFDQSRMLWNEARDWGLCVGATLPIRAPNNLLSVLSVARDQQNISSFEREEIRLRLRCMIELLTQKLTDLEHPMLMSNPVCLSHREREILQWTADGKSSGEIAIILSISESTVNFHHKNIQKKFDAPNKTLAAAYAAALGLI

These are yes or no findings as the source states them, for the method shown. In cells and extracts the contact can be indirect. Some binding calls cover weakened binding; strength is not graded here.

For the substance RhlR (from UniProt P54292 1-241), the binding result is reported as “binds”.
